Some entries share one result that the patent states for a list of compounds. At least one structure is not confirmed: it was looked up by name or label, or the drawing left a doubt.
System: LXRα
Assay: Transcriptional activity of LXRα, LXRE-Luc reporter in HepG2 cells treated with T17
Type: cell-based, human
Conditions: 100 μM, 1 μM T17, 24 hours
Experimental: A human hepatoma cell line and HepG2 (ATCC HB 8065) were purchased from ATCC. HepG2 cells (1.2×10^5 cells/well) were seeded on a 24-well culture plate and cultured overnight in a DMEM containing 10% FBS. The HepG2 cells were maintained at 37° C. in a humidification thermostat containing 5% CO2 and 95% air. After culturing, the HepG2 cells were transformed with LXRE-Luc reporter (0.1 μg) using Welfect-EXTM Plus (WelGENE Inc., Korea). 24 hours after transformation, the HepG2 cells were treated with particular concentrations (1 μM, 10 μM, 20 μM, 50 μM, and 100 μM) of JC1-38, JC1-40, and JC1-42 and 1 μM T17 (T0901317), which is a ligand of LXRα, for 24 hours. Subsequently, cell lysates were collected, and luciferase activity was analyzed and determined using an analytical luminescence luminometer. The luciferase activity was standardized by β-gal activity to determine transcriptional activity, and data was attained as the mean and SD for two or three independent experimental results, and the results thereof are illustrated in FIG. 5a.

SMILES: CNC(=S)NCc1ccccc1-c1ccncc1 [Compound 38, 1-methyl-3-(4-pyridinyl-2-benzyl)-thiourea]
- decrease of the activity of LXRα induced by T17: ≥ 90%

— patent US10407388B2, “Thiourea derivatives as activators of RORα and pharmaceutical composition containing same” (SEOUL NATIONAL UNIVERSITY R & DB FOUNDATION, priority 2011, dated 2019)
